Measurements: patent US20030083381A1, “Hair growth or hair formation controlling agents” (priority 2000, published 2003)
Some entries share one result that the patent states for a list of compounds.

Sequences of proteins named here, by UniProt entry; tags and fusion partners are left off. A change or cut given only in a name is not applied to a line headed by its entry.
UniProt Q28691: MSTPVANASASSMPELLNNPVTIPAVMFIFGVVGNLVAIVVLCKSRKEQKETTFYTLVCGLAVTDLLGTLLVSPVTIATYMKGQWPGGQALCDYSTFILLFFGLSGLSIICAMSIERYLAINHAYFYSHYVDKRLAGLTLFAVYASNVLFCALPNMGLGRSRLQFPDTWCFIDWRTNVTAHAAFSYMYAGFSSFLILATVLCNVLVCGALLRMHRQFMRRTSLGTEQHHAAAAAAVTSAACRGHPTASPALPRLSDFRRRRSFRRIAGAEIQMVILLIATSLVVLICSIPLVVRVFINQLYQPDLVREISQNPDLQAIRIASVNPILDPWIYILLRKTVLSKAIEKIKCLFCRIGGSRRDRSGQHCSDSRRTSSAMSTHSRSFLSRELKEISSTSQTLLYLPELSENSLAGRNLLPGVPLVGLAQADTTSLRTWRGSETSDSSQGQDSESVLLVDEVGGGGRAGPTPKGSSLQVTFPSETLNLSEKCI

Biological target: EP4 Receptor (Oryctolagus cuniculus, UniProt Q28691)
Test: Magnus experiment using rabbit saphenous vein (relaxation of 40 mM KCl contraction)
Assay type: cell-based
Settings: statement drawn from Table 2
Experimental: Magnus Experiment Using Rabbit Saphenous Vein
Investigation of agonistic activity to EP4 was carried out by an improved method of the method of Lydford et al. (S. J. Lydford et al., Br. J. Pharmacol. 117, 13-20 (1996)) using rabbit saphenous veins. That is, each rabbit was deeply anesthetized by administering pentobarbital (50 mg/kg) to auricular vein, and then sacrificed by bleeding by cutting carotid artery. Saphenous vein was carefully but quickly removed and transferred into Krebs solution (NaCl 118.1 mM, KCl 5.31 mM, MgSO4 1.01 mM, CaCl2 3.52 mM, NaH2PO4 1.09 mM, NaHCO3 25.0 mM, glucose 9.99 mM, pH 7.4) which was preliminarily saturated with 95% O2+5% CO2 mixed gas. The connective tissue and the fatty tissue of each saphenous vein were isolated using a scissors for ophthalmology to prepare a ring preparation with a width of about 4 mm. This ring preparation was mounted on a hook for blood vessels, and then suspended in a Magnus tube filled with Krebs solution aerated with 95% O2+5% CO2 mixed gas and kept at 37° C. The isometric tension of each blood vessel was recorded on a recorder through an isometric transducer. To each blood vessel, a base tension of 1.0 g was applied and the blood vessel tissue was stabilized for about 30 minutes until the baseline became stabilized. After the baseline became stable, the blood vessel was contracted with 40 mM KCl, and the shrinkage and washing were repeated until the contraction became stable. After the contraction with KCl became stable, a thromboxane antagonist S-145 (1000 nM) was applied previously and then cumulative application experiments of Compounds 1 to 7 were carried out. More specifically, the reactivity to PGE2 which was a positive control drug was measured, and after washing, the action of each compound was studied. The effectiveness of each drug was expressed in terms of the concentration (EC50) at which the rate of relaxation of the test drug to the contraction by 40 mM KCl was 50%. EC50 value was calculated by plotting logarithm of the concentration of each drug along the abscissa and plotting the rate of relaxation with respect to the contraction by 40 mM KCl along the ordinate, and by determining the concentration at which the height of contraction was 50% based on the linear area of the concentration-reaction curve in each experiment. [drawing 39]

Row | SMILES | selectivities to EP4 receptor subtype (binding abilities to other receptor subtypes are low)
1 | O=C(O)CCc1cccc2c1O[C@H]1C[C@@H](O)[C@H](/C=C/[C@@H](O)CC3CCCCC3)[C@@H]21 [Compound 1] | high selectivities
2 | O=C(O)CCc1cccc2c1OC1CC(O)C(C=CC(O)C(F)(F)C3CCCCC3)C21 (stereo not drawn) [Compound 7] | high selectivities
3 | O=C(O)CSc1cccc2c1OC1CC(O)C(C=CC(O)CC3CCCCC3)C21 (stereo not drawn) [Compound 6] | high selectivities
4 | CC(C)(Cc1ccccc1)C(O)C=CC1C(O)CC2Oc3c(CCC(=O)O)cccc3C21 (stereo not drawn) [Compound 4] | high selectivities
5 | OC(C=CC1C(O)CC2Oc3c(CCc4nnn[nH]4)cccc3C21)CC1CCCCC1 (stereo not drawn) [Compound 2] | high selectivities
6 | O=C(O)C=Cc1cccc2c1OC1CC(O)C(C=CC(O)CC3CCCCC3)C21 (stereo not drawn) [Compound 3] | high selectivities
